Library screen at single concentrations

The values are deposited in ChEMBL (CHEMBL3988442, “University of Dundee, Small-Polar-MMV Screening Library” (2021)).

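Assay of Toxoplasma gondii numbers, read through their beta-galactosidase reporter with a colour substrate. Concentration: 10 µM. The record gives no direction; the compounds picked for IC50 retests had high values, so higher reads as fewer parasites. About 67,000 compounds were tested under these conditions; 0.38% (about 260) showed 50% or more at least once.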

The filed quantity is “Percent Effect” (%). How 0% and 100% were set is not recorded. Most values in the screen are low, and negative values occur. The compounds are a random part of those screened.

COCCC1(CNC(=O)Nc2ccnc(C)c2)CCCC1 gave 11.66%.
COc1ncc(-c2nccn2-c2ccccc2CN2CCOCC2)cn1 gave -10.46%.
O=C(O)C(F)(F)F.[H][C@@]12CN(CC(C)C)C[C@]1([H])C(=O)N(CC)C21CCN(C(=O)NC(C)C)CC1 gave 0.7901%.
Cc1nc[nH]c1CN1CCn2nc(CN3CC[C@H](F)C3)cc2C1 gave 2.2%.
O=C(NCC1CC1)c1ccc(NC(=O)c2ccco2)cc1 gave 0.363%.
COCCN(Cc1ccc(C)o1)C(=O)Nc1ncc(C)s1 gave 17.53%.
c1ccc(CCCn2cc(-c3nc(CN4CCOCC4)no3)nn2)cc1 gave -10.09%.
CC(C)n1ncc2cc(NC(=O)N3CCC(N4CCCC4)C3)cnc21 (stereo not given) gave 10.12%.
Cc1nc(C)n(CC2CCCN2Cc2nc(-c3ccco3)no2)n1 (stereo not given) gave 9.641%.
CN(C(=O)Cn1nc(-c2ccc(F)cc2)oc1=O)c1ccccc1 gave 12.85%.
CNc1ccc(C)cc1C(=O)N1CCCC2(CCNC2)C1 (stereo not given) gave 6.487%.
COc1ccc(CN2CCNC(=O)CC2)cc1SC(F)(F)F gave 2.042%.
[H][C@@]12COC[C@@H](CC(=O)N3CCCO3)[C@]1([H])CN(S(C)(=O)=O)C2 gave 13.47%.
O=C(O)C(F)(F)F.c1ccc(N2CCCC3(CCN(Cc4ccsc4)C3)C2)nc1 (stereo not given) gave 6.477%.
O=C(O)CNc1cc(-c2nccnc2N2CCCC2)c2cc[nH]c2n1 gave -4.719%.
NC(=O)COc1cccc(C(=O)N2CCCC(n3ccnc3)C2)c1 (stereo not given) gave 5.924%.
CN(C)c1ccc(CNC(=O)Nc2ccc(S(=O)(=O)C(F)F)cc2)cc1 gave 0.3236%.
COc1ccc([C@@H]2CN(c3cnccn3)C[C@H]2N(C)C)cc1 gave 0.3425%.
O=C(c1csc(-c2ncccn2)n1)N1CCCC1Cn1cccn1 (stereo not given) gave 16.17%.
CCN1CC2(CCC1=O)CCN(CCc1nccn1C)CC2 gave 5.023%.
Fc1cccc(-c2nc(CN3CCCC(Cn4cncn4)C3)co2)c1 (stereo not given) gave -14.56%.
Cc1csc2c(N3CCC(NCCCC4CCOC4)CC3)ncnc12 (stereo not given) gave -45.99%.
OCCOCCN1CCCC1c1cccc(Cl)c1 (stereo not given) gave 4.987%.
Cc1ccccc1C1(C(=O)NCCN2CCOCC2)CCOCC1 gave 8.607%.
c1ncc2c(n1)CN(CC1CCCCO1)CC2 (stereo not given) gave 4.372%.
CC1CCCCN1CCNC(=O)c1ccn(-c2ccc(F)cc2)n1 (stereo not given) gave -0.9765%.
Cc1c(C(=O)NCCCS(C)(=O)=O)cccc1-c1ccccn1 gave -2.121%.
CCc1cc(=O)n(CC(=O)N2CCC(C)CC2)c(-c2cccc(F)c2)n1 gave -15.1%.
CN1CCC(NC(=O)C2CN(c3cncnc3)CCO2)CC1 (stereo not given) gave 1.895%.

For reference, 2 entries once more:

Cc1ccccc1C1(C(=O)NCCN2CCOCC2)CCOCC1 read 8.607%.
CCN1CC2(CCC1=O)CCN(CCc1nccn1C)CC2 read 5.023%.